Laboratory results: PubChem BioAssay AID493014 (National Center for Advancing Translational Sciences (NCATS), 2011)
The list shows a part of the results. These are further read-outs of the screen, such as a control signal, another cell line or another target. No call is given for them. Compounds called inactive in the main read-out are mostly missing here. Words in brackets tell the shape of the fitted curve; partial curves, single points and poor fits give uncertain potencies.

Experiment: qHTS Assay to Find Inhibitors of Chronic Active B-Cell Receptor Signaling
Details: ABC-DLBCL IkBa-CBG/CBR reporter, luminescence ratio (green luciferase fused to IkBa over red control in TMD8 lymphoma cells), 4 h
Outline: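 TMD8 ABC-DLBCL cells carrying doxycycline-inducible green luciferase fused to IkappaBalpha plus unfused red luciferase were exposed to compounds (up to 46 uM) for 4 hrs at 37C. Activity came from the overlap-corrected green/red luminescence ratio.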

[1] = measured here: CBR red luminescence, cell number
[2] = measured here: IkBa-CBG green luminescence

SMILES	AC50 [1]	AC50 [2]
COc1cc(S(=O)(=O)N2CCN(c3ccccn3)CC2)ccc1Br	5.62 µM [rising, single point]	
COc1cc(Cl)c(S(=O)(=O)N2CCOCC2)cc1Cl	11.6 µM [rising, partial curve, poor fit]	
COc1ccccc1-c1cc(C(=O)N2CCN(c3ccccc3)CC2)no1	1.58 µM [falling, full curve]	
CCOC(=O)N1CCN(C(=O)C(C)N(c2ccccc2)S(C)(=O)=O)CC1 (stereo not drawn)	3.16 µM [falling, single point]	
O=C(N[C@@H]1C/C=C\C[C@@H](CC(=O)N(CCO)Cc2ccccc2)C(=O)NC[C@H](c2ccccc2)OC1=O)OCC1c2ccccc2-c2ccccc21	0.92 µM [falling, full curve, poor fit]	
COc1ccc(-c2nc3c(-c4ccccc4)cnn3cc2C)cc1F	1.41 µM [falling, full curve, poor fit]	
CC(C)(C)c1ccc(-c2noc(CCC(=O)NCC3CCCO3)n2)cc1 (stereo not drawn)	29.1 µM [falling, single point]	
CCOC(=O)c1ccc(CN2C(=O)c3ccccc3S2(=O)=O)cc1	31.6 µM [rising, single point]	
OCCOCCN1CCN(C(=S)Nc2ccccc2)CC1	0.398 µM [rising, full curve, poor fit]	
Cc1cc(C)c(-c2cc(C(=O)Nc3c(C)n(C)n(-c4ccccc4)c3=O)[nH]n2)c(O)c1	29.1 µM [falling, single point]	
O=C(N/N=C\c1ccccc1)c1ccccc1-n1cccc1	25.1 µM [rising, partial curve, poor fit]	
CCc1ccc(C2=CC(c3cccc(C)c3)n3c(nc4ccccc43)N2)cc1 (stereo not drawn)	2.82 µM [falling, full curve]	
COc1cc(NC(=O)c2cc3cccc(OC)c3o2)cc(C(=O)Nc2cccc(C(F)(F)F)c2)c1	7.08 µM [falling, full curve]	
CC(=O)n1cc(C(C[N+](=O)[O-])SCCN)c2ccccc21 (stereo not drawn)	22.4 µM [rising, single point]	28.2 µM [falling, single point]
CC(=O)Nc1ccc(S(=O)(=O)NCCC(=O)Nc2cccc(Cl)c2)cc1	3.55 µM [falling, single point]	
O=C(O)C1CC=CCC1C(=O)c1ccccc1 (stereo not drawn)	2.31 µM [rising, partial curve, poor fit]	
Cc1cc(C)cc(-n2nnnc2SCC(=O)Nc2cccc(NC(=O)c3ccco3)c2)c1	4.47 µM [falling, partial curve]	
CC(C)N(Cc1ccccc1)C(=O)COc1ccccc1	35.5 µM [rising, single point]	
CC1=C(C(=O)OC2CCCC2)C(c2ccc(C)o2)C2=C(CC(c3cccs3)CC2=O)N1 (stereo not drawn)	0.164 µM [falling, full curve, poor fit]	
COc1cccc(NC(=S)N(CCCN2CCCC2)Cc2cccn2Cc2ccc(Cl)cc2)c1	12.6 µM [falling, partial curve, poor fit]	

A different layout for two compounds above.
SMILES | AC50 [1] | AC50 [2]
O=C(N[C@@H]1C/C=C\C[C@@H](CC(=O)N(CCO)Cc2ccccc2)C(=O)NC[C@H](c2ccccc2)OC1=O)OCC1c2ccccc2-c2ccccc21 | 0.92 µM [falling, full curve, poor fit] | 
COc1ccc(-c2nc3c(-c4ccccc4)cnn3cc2C)cc1F | 1.41 µM [falling, full curve, poor fit] | 

(further entries)

SMILES	AC50 [1]	AC50 [2]
O=S(=O)(Nc1ccccc1)c1ccc(NS(=O)(=O)c2cccs2)cc1	17.8 µM [rising, partial curve]	
COc1ccccc1NC(=O)CSc1nnnn1-c1ccccc1OC	12.6 µM [falling, partial curve]	
CCNC(=O)N1CCN(CCCC(c2ccc(F)cc2)c2ccc(F)cc2)CC1	29.1 µM [falling, single point]	
C/C(Cn1nnc([N+](=O)[O-])n1)=N\NC(=O)c1ccccc1Cl	10 µM [falling, partial curve]	
CCCNC(=O)CN(CCc1ccccc1)S(C)(=O)=O	0.0651 µM [falling, full curve, poor fit]	
CCCCN(C)CC(O)Cn1cc(/C=C/C(=O)c2cccs2)c2ccccc21 (stereo not drawn)	11.6 µM [falling, partial curve, poor fit]	
NS(=O)(=O)c1ccc(NC(=O)COC(=O)CN2C(=O)C3CC=CCC3C2=O)cc1 (stereo not drawn)	0.0058 µM [rising, full curve, poor fit]	
Cc1ccccc1C(=O)NC(C)C1CC2CCC1C2 (stereo not drawn)	35.5 µM [rising, single point]	
Cc1ccccc1Cn1ccc(NC(=O)c2cc3ncc(Br)cn3n2)n1	12.6 µM [falling, partial curve]	
CCOC(=O)C1=C(COC(=O)/C=C/c2cccc(OC)c2OC)NC(=O)NC1C (stereo not drawn)	11.2 µM [falling, single point]	
CCc1cc(C(c2ccc(OC)c(OC)c2)N2CCOCC2)c(NC(=O)c2ccccc2)s1 (stereo not drawn)	29.1 µM [falling, single point]	
CCc1ccccc1Nc1nc(N)nc(CSc2nnc3ccccn23)n1	3.55 µM [rising, single point]	
COC(=O)CCC(=O)Oc1ccc(OC(=O)CCC(=O)OC)cc1	16.4 µM [falling, partial curve]	
CCc1cc(C(=O)NNC(=S)NCc2ccccc2)cs1	15.8 µM [falling, partial curve]	17.8 µM [rising, partial curve, poor fit]
O=C(Nc1ccccc1Cl)c1ccc(F)c(S(=O)(=O)NCc2ccc(Cl)c(Cl)c2)c1	25.1 µM [falling, single point]	
CCOC(=O)Cc1csc(N)n1	18.4 µM [falling, partial curve, poor fit]	
O=C(O)CCC(=O)c1ccc2ccc3cccc4ccc1c2c34	0.708 µM [falling, full curve]	12.6 µM [rising, single point]
CCCC(=O)c1ccc(N2CCOCC2)c(F)c1	14.1 µM [rising, single point]	
Cc1c(C=O)c2ccccn2c1C(=O)c1ccc(F)cc1	5.62 µM [rising, partial curve, poor fit]	
COc1ccc([C@@H]2C[C@H]3CN(Cc4ccccc4OC)C(=O)[C@]34CCCN24)cc1C	2.82 µM [rising, partial curve, poor fit]	
